Measured values as given in patent publication US20230172940A1, “METHODS OF EXTENDING LIFESPAN BY ADMINISTERING FERROPTOSIS INHIBITORS” (COLLABORATIVE MEDICINAL DEVELOPMENT, LLC, priority 2020, published 2023).

System: C. elegans strain TJ1060
Experiment: Testing for departure from temporal rescaling (K-S test on AFT residuals of lifespan data)
Set-up: species or system Caenorhabditis elegans
Settings: 8 independent experiments combined; p<0.01

SMILES	consistency of lifespan increase with temporal scaling model (AFT)
O=C(N/N=C/c1ccccc1O)c1ccncc1 [SIH, Salicylaldehyde isonicotinoyl hydrazone]	not consistent with the temporal scaling model
Clc1cccc(CNC2=Nc3ccccc3NC23CCNCC3)c1 [Lip-1, N-[(3-chlorophenyl)methyl]-spiro[piperidine-4,2′(1′H)-quinoxalin]-3′-amine]	not consistent with the temporal scaling model
